In the test the test system is BDF1 mice, intracerebral B16 melanoma, median survival T/C. Description: NCI In Vivo Anticancer Drug Screen. Data for tumor model B16 Melanoma (intracerebral) in B6D2F1 (BDF1) mice. Conditions: T/C endpoint: median survival time, higher T/C = longer survival. On the procedure: The antitumor activity of compounds was measured in mice bearing transplantable tumors. Survival or tumor size were measured and the results are expressed as the measurement made in the treated group (T) divided by the measurement made in the vehicle treated control group (C). The tumor model used in this assay is B16 Melanoma (intracerebral) in B6D2F1 (BDF1) mice

Setting [1] is: dose: 4.0 mg/kg/injection, schedule: Q01DX009 (ip), vehicle: saline.
The mark [2] stands for this setting: dose: 32.0 mg/kg/injection, schedule: Q01DX005 (ip), vehicle: saline.
Setting [3] is: dose: 256.0 mg/kg/injection, schedule: Q01DX005 (ip), vehicle: saline.
Setting [4] is: dose: 8.0 mg/kg/injection, schedule: Q01DX009 (ip), vehicle: saline.
[5] abbreviates: dose: 40.0 micrograms/kg/injection, schedule: Q01DX009 (ip), vehicle: saline.

Structures are written as SMILES. The list shows only some results of the screen, not a fair sample: it is rich in T/C values a quarter to a half above the control, in often repeated tests (any T/C) and in doses without a T/C. Further doses and runs are listed elsewhere. T/C gives the treated animals as a percentage of the vehicle group. Some entries give survivors of the animals treated and no T/C: the source files T/C as zero there, which appears to mark a toxic dose or a test without result, not a measured value. Some doses without a T/C left all or most animals alive at the check, yet need not have been tolerated: survival well below the control is almost never listed, so the zero probably covers shortened survival too. Counts of survivors are from the toxicity check (mostly the fifth day) where no day follows; animals may have died later. Schedule codes are those of the source, read here as Q, the interval in days (D) or hours (H), X, the number of doses. Some entries were tested several times; their values stand side by side, smallest first. For survival time, this PubChem deposit counts one and a half times the control or more as active, and values a quarter to a half above the control carry no call in these data; other NCI protocols may use other cut-offs. Some T/C values are followed by the survivors on the day toxicity was checked, most often the fifth; without a count, all were alive then. *1 amine or outer side, *2 acyl side, *3 side chain or, on linkers, in order; H or OH if unused. Where a SMILES comes first, the peptide text is derived from it. Bridges are numbered along the chain shown (N, C = ends). Roman numbers before positions name the chains, in order. [ ]: non-standard residue; d: D form. Actinocin(9to1) = Cc1c2oc3c(C)ccc(C(=O)[*:1])c3nc-2c(C(=O)[*:2])c(N)c1=O; aThr = C[C@H](O)[C@H](N)C(=O)O; NMeV = CN[C@H](C(=O)O)C(C)C; Sar = CNCC(=O)O

`O=NN(CCCl)C(=O)NCCCl`: the T/C is, setting by setting: (dose: 0.5 mg/kg/injection, schedule: Q01DX009 (ip), vehicle: saline with Tween-80, evaluated on day 30) 104 and 112 % of control; (dose: 0.5 mg/kg/injection, schedule: Q01DX009 (ip), vehicle: saline with Tween-80, evaluated on day 60) 99 [9 of 10 alive], 105, 107 % of control; (dose: 1.0 mg/kg/injection, schedule: Q01DX009 (ip), vehicle: saline with Tween-80, evaluated on day 30) 110 and 114 % of control; (dose: 1.0 mg/kg/injection, schedule: Q01DX009 (ip), vehicle: saline with Tween-80, evaluated on day 60) 102, 116, 122 % of control; (dose: 1.9 mg/kg/injection, schedule: Q01DX009 (ip), vehicle: saline) 125 % of control; (dose: 2.0 mg/kg/injection, schedule: Q01DX009 (ip), vehicle: saline with Tween-80, evaluated on day 30) 114 and 118 % of control. The T/C is, setting by setting: (dose: 2.0 mg/kg/injection, schedule: Q01DX009 (ip), vehicle: saline with Tween-80, evaluated on day 60) 115, 116, 143 % of control [9 of 10 alive]; (dose: 2.5 mg/kg/injection, schedule: Q01DX009 (ip), vehicle: other) 125 % of control; (dose: 3.75 mg/kg/injection, schedule: Q01DX009 (ip), vehicle: saline) 137 % of control; (dose: 4.0 mg/kg/injection, schedule: Q01DX009 (ip), vehicle: saline with Tween-80, evaluated on day 30) 120 and 129 % of control; (dose: 4.0 mg/kg/injection, schedule: Q01DX009 (ip), vehicle: saline with Tween-80, evaluated on day 60) 130, 139, 146 % of control; under setting [1], 128 and 134 % of control. Moreover, the T/C (dose: 5.0 mg/kg/injection, schedule: Q04DX003 (ip), vehicle: saline sonified) was 125 % of control; the T/C (dose: 7.5 mg/kg/injection, schedule: Q01DX009 (ip), vehicle: saline) was 141 % of control; the T/C (dose: 8.0 mg/kg/injection, schedule: Q01DX009 (ip), vehicle: saline with Tween-80, evaluated on day 30) is 161 and 170 % of control; the T/C (dose: 8.0 mg/kg/injection, schedule: Q01DX009 (ip), vehicle: saline with Tween-80, evaluated on day 60) is 135, 172 [9 of 10 alive], 175 % of control; the T/C (dose: 10.0 mg/kg/injection, schedule: Q01DX009 (ip), vehicle: other) was 133 % of control; the T/C (dose: 16.0 mg/kg/injection, schedule: Q01DX009 (ip), vehicle: saline with Tween-80, evaluated on day 30) is 162 % of control. Further, where the note is “dose: 16.0 mg/kg/injection, schedule: Q01DX009 (ip), vehicle: saline with Tween-80, evaluated on day 60”, the T/C is 151 % of control. The survivor count (dose: 16.0 mg/kg/injection, schedule: Q01DX009 (ip), vehicle: saline with Tween-80) is 9 of 10 and 10 of 10; the survivor count (dose: 16.0 mg/kg/injection, schedule: Q01DX009 (ip), vehicle: saline) is on record as 10 of 10; the survivor count (dose: 20.0 mg/kg/injection, schedule: Q01DX009 (ip), vehicle: other) is reported as 10 of 10; the survivor count (dose: 24.0 mg/kg/injection, schedule: Q01DX009 (ip), vehicle: saline + alcohol) was 10 of 10; the survivor count (dose: 32.0 mg/kg/injection, schedule: Q01DX009 (ip), vehicle: saline + alcohol) is on record as 10 of 10.

For the compound `O=[N+]([O-])O.[Ga]`, the survivor count was 10 of 10 under setting [2]; 4 of 10 and 9 of 10 under setting [3].

`S=P(N1CC1)(N1CC1)N1CC1`: the T/C is 125 % of control (dose: 2.0 mg/kg/injection, schedule: Q01DX009 (ip), vehicle: saline, evaluated on day 30); 127 % of control (dose: 2.0 mg/kg/injection, schedule: Q01DX009 (ip), vehicle: saline, evaluated on day 60); 133 % of control under setting [1]; 125 % of control under setting [4]. Moreover, the survivor count under setting [4] is given as 6 of 10.

For `COc1ccc2c(c1O)-c1cccc3c1[C@@H](C2)N(CCCl)CC3`, the survivor count runs as follows: under setting [2], 8 of 10; (dose: 64.0 mg/kg/injection, schedule: Q01DX005 (ip), vehicle: saline) 0 of 10; (dose: 128.0 mg/kg/injection, schedule: Q01DX005 (ip), vehicle: saline) 0 of 10.

`Cc1cn(C2CC(O)C(CO)O2)c(=O)[nH]c1=O` (stereo not given): the T/C runs as follows: (dose: 200.0 mg/kg/injection, schedule: Q01DX009 (ip), vehicle: saline with Tween-80) 129 % of control [9 of 10 alive]; (dose: 400.0 mg/kg/injection, schedule: Q01DX009 (ip), vehicle: saline with Tween-80) 129 % of control [9 of 10 alive].

`O=C1C(N2CC2)=C(N2CC2)C(=O)C(N2CC2)=C1N1CC1`: the survivor count is on record as 6 of 6 (dose: 10.0 micrograms/kg/injection, schedule: Q01DX009 (ip), vehicle: saline); 6 of 6 (dose: 20.0 micrograms/kg/injection, schedule: Q01DX009 (ip), vehicle: saline); 6 of 6 under setting [5]; 6 of 6 (dose: 80.0 micrograms/kg/injection, schedule: Q01DX009 (ip), vehicle: saline). For the same compound, under setting [5], the T/C is 129 % of control.

With `CN=NNc1nc[nH]c1C(N)=O`, the survivor count under setting [3] is listed as 10 of 10.

On to `OC(C1CO1)C(O)C1CO1` (stereo not given), for which the T/C under setting [1] is 129 and 144 % of control [5 of 6 alive].

Turning to `Cc1c2oc3c(C)ccc(C(=O)N[C@@H]4C(=O)N[C@H](C(C)C)C(=O)N5CCC[C@H]5C(=O)N(C)CC(=O)N(C)[C@@H](C(C)C)C(=O)O[C@H]4C)c3nc-2c(C(=O)N[C@@H]2C(=O)N[C@H](C(C)C)C(=O)N3CCC[C@H]3C(=O)N(C)CC(=O)N(C)[C@@H](C(C)C)C(=O)O[C@H]2C)c(N)c1=O` (I: [aThr][dV]P[Sar][NMeV] / II: [aThr][dV]P[Sar][NMeV]; ester I:1-I:C, II:1-II:C; linker I:N-II:N via Actinocin(9to1)), the survivor count reads like this: (dose: 0.1 mg/kg/injection, schedule: Q01DX009 (ip), vehicle: water) 8 of 10; (dose: 0.2 mg/kg/injection, schedule: Q01DX009 (ip), vehicle: water) 10 of 10.

On to `C[C@]1(O)CC[C@H]2[C@@H]3CCC4=CC(=O)CC[C@]4(C)[C@@]3(F)[C@@H](O)C[C@@]21C`, for which the T/C (dose: 16.0 mg/kg/injection, schedule: Q01DX009 (ip), vehicle: Klucel (hydroxypropylcellulose) (HPC)) was 131 % of control and the T/C (dose: 32.0 mg/kg/injection, schedule: Q01DX009 (ip), vehicle: Klucel (hydroxypropylcellulose) (HPC)) was 125 % of control. For the setting “dose: 512.0 mg/kg/injection, schedule: Q01DX009 (ip), vehicle: Klucel (hydroxypropylcellulose) (HPC)”, the survivor count is recorded as 0 of 6.

As to `CC[C@]1(O)C[C@H]2CN(CCc3c([nH]c4ccccc34)[C@@](C(=O)OC)(c3cc4c(cc3OC)N(C=O)[C@H]3[C@@](O)(C(=O)OC)[C@H](OC(C)=O)[C@]5(CC)C=CCN6CC[C@]43[C@@H]65)C2)C1`, the survivor count (dose: 0.52 mg/kg/injection, schedule: Q01DX009 (ip), vehicle: saline) was 10 of 10.

For `CS(C)=O`, the survivor count (dose: 1000.0 mg/kg/injection, schedule: Q01DX005 (ip), vehicle: saline) was 10 of 10.

With `N[C@@H](Cc1ccc(N(CCCl)CCCl)cc1)C(=O)O`, the T/C (dose: 4.0 mg/kg/injection, schedule: Q01DX009 (ip), vehicle: water) was 137 % of control.

Consider `CCC(C)N(C)/N=N/c1nc[nH]c1C(N)=O` (stereo not given), for which the survivor count (dose: 256.0 mg/kg/injection, schedule: Q01DX005 (ip), vehicle: saline with Tween-80) was 9 of 10.

`CN(N=O)C(N)=O`: the T/C is 125 % of control (dose: 3.12 mg/kg/injection, schedule: Q01DX009 (ip), vehicle: saline) and 135 % of control [9 of 10 alive] (dose: 12.5 mg/kg/injection, schedule: Q01DX009 (ip), vehicle: saline). Besides, where the note is “dose: 50.0 mg/kg/injection, schedule: Q01DX009 (ip), vehicle: saline”, the survivor count is reported as 10 of 10.

The values are drawn from PubChem BioAssay AID196 (DTP/NCI, 2004).
